# From PubChem BioAssay AID504467 (National Center for Advancing Translational Sciences (NCATS), 2011)
# Several values for one entry are separate records, joined by “and”; a condition that tells them apart may be missing. Identical values can stand only once. In all, about 330,000 compounds went through this assay and about 7,700 (2.3%) were called active. This list was built around the results that the source calls inconclusive (neither active nor inactive); the mix of calls is not that of the screen. Calls come from the whole dose curve; as a rule, active = well fitted inhibition curve with a large enough effect; inconclusive = small, poorly fitted or top-dose-only effect, or effect the other way; inactive = flat fitted curve, though single readings scatter. Where the call is inconclusive, the potency comes from a doubtful curve fit.
# Test: qHTS screen for small molecules that inhibit ELG1-dependent DNA repair in human embryonic kidney (HEK293T) cells expressing luciferase-tagged ELG1; note: nearly all actives have a fitted effect of over 55% in size
# Conditions: HEK293T ELG1-luciferase reporter, luminescence, 16 h, DNA damage induced by 5-fluorouridine; activity change, negative = inhibition: at 46.1 µM (top of the series)
# Procedure, shortened: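 Overnight (16 hr) co-exposure of 2,000 cells/well to 5-fluorouridine and compound at 37 °C preceded detection. Luciferase was quantified via ONE-Glo luminescence; loss of signal denotes inhibition.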
# % is set by controls: 0 for no effect and ±100 for the full control effect; potency is the fitted concentration of half-maximal effect.
SMILES,Potency,"activity change, negative = inhibition"
COCCNc1cnn(-c2ccccc2)c(=O)c1Cl,"inconclusive: 25.9 µM [activator, single point]",–
CCS(=O)(=O)c1ccc(O)c(NC(=O)/C=C/c2ccc(Cl)cc2)c1,"inconclusive: 6.51 µM [inhibitor, full curve, poor fit]",–
CCOCC(=O)Nc1cc(C(=O)OC)ccc1C(=O)OC,–,inactive: 8.52%
Cc1csc(=NC(=O)c2ccccc2)n1C,"inconclusive: 9.2 µM [activator, partial curve]",–
O=C(NC1CCN(Cc2ccccc2)CC1)C1CCN(S(=O)(=O)c2cccc3cccnc23)CC1,"inconclusive: 20.6 µM [inhibitor, single point]",–
CSCCC(NC(=O)c1ccco1)C(=O)Nc1cc(C)ccn1 (stereo unspecified),"inconclusive: 7.3 µM [activator, partial curve, poor fit]",–
COCCCNc1oc(/C=C/c2ccccc2)nc1C#N,"inconclusive: 2.06 µM [activator, full curve]",–
CN(C)c1nc(Oc2ccc(OCCOc3ccccc3)nn2)nc(N(C)C)n1,–,inactive: 5.75%
COc1ccc(/C=C2\N=C(SC)N(C)C2=O)cc1,"inconclusive: 29.1 µM [activator, partial curve, poor fit]",–
Cc1c(C)c2cc(Cl)c(O)c(CN3CCN(C)CC3)c2oc1=O,–,inactive: 1.65%
CC(C)N(CCO)C(=O)CCc1nnc(CCCc2ccccc2)o1,"inconclusive: 23.1 µM [activator, partial curve]",–
CC(=O)c1cccc(S(=O)(=O)N2CCN(CCOc3ccccc3)CC2)c1,"inconclusive: 16.4 µM [inhibitor, single point]",–
Clc1c(CSc2nc3ccccc3o2)nc2ccccn12,"inconclusive: 2.91 µM [activator, full curve]",–
CC1CCCN(c2sc(S(C)(=O)=O)nc2S(=O)(=O)c2ccc(Cl)cc2)C1 (stereo unspecified),–,inactive: -22.2%
COC(=O)c1c(NC(=O)C2=COCCO2)sc(C)c1C,–,inactive: -19%
CCC(C(=O)N1CCCCCC1)n1nc(C)n2c(cc3occc32)c1=O (stereo unspecified),–,inactive: 23.6%
CC(C)c1ccc(/C=C2\SC(=S)N(CCC(=O)N3CCCCC3CCO)C2=O)cc1 (stereo unspecified),"inconclusive: 29.1 µM [inhibitor, single point]",–
Cc1cccn2c(=O)c3cc(C(=O)NC4CCCCCC4)sc3nc12,–,inactive: -2.91%
N#C/C(=C\c1ccc2c(c1)OCO2)C(=O)NCc1ccco1,"inconclusive: 29.1 µM [activator, single point]",–
N#C/C(=C\c1cccs1)C(=O)N1CCOCC1,–,inactive: -1.27%
Cc1ccc(S(C)(=O)=O)cc1C(=O)OCC(=O)N(Cc1ccccc1)Cc1ccccc1,"inconclusive: 20.6 µM [inhibitor, single point]",–
O=C(NC1CCN(Cc2ccccc2)CC1)c1ccc2c(c1)[nH]c(=O)n2Cc1ccc(F)cc1,–,inactive: -9.24%
Cc1ccc(NC(=O)Cn2c([N+](=O)[O-])cnc2C)cc1Cl,–,inactive: -13.4%
COc1cccc(/C=N/NC(=O)CN2C(=O)NC3NC(=O)NC32)c1 (stereo unspecified),"inconclusive: 29.1 µM [activator, partial curve, poor fit]",–

SMILES,Potency,"activity change, negative = inhibition"
CCOc1ccc(Nc2ccc([N+](=O)[O-])c3nonc23)cc1,"inconclusive: 6.51 µM [activator, single point]",–
CCOc1cc(NC(=O)c2cccs2)c(OCC)cc1NC(=O)c1ccco1,–,inactive: 3.86%
COc1ccc(CCNC(=O)COC(=O)/C=C/c2ccc(OC)cc2OC)cc1,"inconclusive: 29.1 µM [inhibitor, single point]",–
Cc1cc(C)c(C(=O)/C=C/c2ccco2)c(=O)[nH]1,–,inactive: 0.0347%
CCOC(=O)c1cc2c(=O)n3ccccc3nc2n(Cc2ccco2)c1=NC(=O)c1ccccc1OC,"inconclusive: 20.6 µM [inhibitor, partial curve, poor fit]",–
COc1ccc(CN2CCNC(=O)C2CC(=O)NCC2CCOCC2)c(F)c1 (stereo unspecified),–,inactive: 12.9%
CC(=O)NCc1ccc(-c2nc3ccccc3s2)cc1,"inconclusive: 2.31 µM [activator, full curve]",–
COc1cc(CC(NC(C)=O)C(=O)NC2CCN(c3c(Cc4ccccc4)c(C)nc4ncnn34)CC2)cc(OC)c1 (stereo unspecified),"inconclusive: 18.4 µM [inhibitor, partial curve]",–
COc1cc(NC(=O)c2oc3ccccc3c2C)ccc1NC(=O)c1ccco1,–,inactive: -22.5%
Nc1nc2ccccc2n1C(=O)c1ccc(F)cc1,"inconclusive: 1.16 µM [activator, partial curve]",–
COc1ccc(OC)c(N(CC(=O)Nc2ccc(NC(C)=O)cc2)S(C)(=O)=O)c1,"inconclusive: 32.6 µM [activator, partial curve, poor fit]",–
COc1ccc(/C=C(\NC(=O)c2cccs2)C(=O)Nc2cccc3ccccc23)cc1OC,"inconclusive: 23.1 µM [inhibitor, single point]",–
COc1ccc(N=Nc2[nH]c3ccc(C)cc3c2O)cc1,"inconclusive: 18.4 µM [activator, partial curve]",–
CCOC(=O)c1[nH]c(C)c(C(=O)Nc2ccc(C)c(Cl)c2)c1C,–,inactive: 0.525%
O=C(NCc1cccnc1)C12CC3CC(CC(C3)C1)C2,"inconclusive: 23.1 µM [activator, partial curve, poor fit]",–
Cc1cc(C)cc(OCC(=O)Nc2ccc3c4c(cccc24)CC3)c1,"inconclusive: 14.1 µM [activator, single point]",–
COc1ccc(CCN(Cc2nc3ccccc3c(=O)[nH]2)C(=O)c2ccco2)cc1OC,"inconclusive: 29.1 µM [inhibitor, single point]",–
CCOC(=O)c1sc(N(Cc2ccccc2)C(=O)COC(=O)c2ccc(O)cc2)nc1C,active: 1.3 µM,–
COc1ccc(-c2nc3ccc(C)cn3c2NCc2ccc3c(c2)OCO3)cc1,"inconclusive: 6.51 µM [activator, single point]",–
Cc1ccc(Nc2nnc(SC(C)C(=O)NCC3CCCO3)s2)cc1C (stereo unspecified),"inconclusive: 14.6 µM [inhibitor, single point]",–
COc1ccc2[nH]cc(CCNC(=O)c3ccco3)c2c1,–,inactive: 10.1%
O=C(c1cc(-c2ccccc2)on1)N1CCCCCC1,"inconclusive: 9.2 µM [activator, partial curve]",–
Cc1ccc(CCC(=O)Nc2ccccc2F)s1,"inconclusive: 9.2 µM [activator, partial curve]",–
CN(C)CCCNc1c2c(nc3cc(-c4cccc(F)c4)nn13)CCC2,–,inactive: 25.5%

SMILES,Potency,"activity change, negative = inhibition"
CN(C)CCCNc1nc(-c2ccccc2)nc2ccccc12,–,inactive: -0.304%
O=C(O)c1ccc(N=NN2CCCCC2)cc1,"inconclusive: 2.06 µM [activator, full curve]",–
O=S1(=O)N=C(Nc2ccc(O)c(CN3CCCCC3)c2)c2ccccc21,"inconclusive: 1.03 µM [inhibitor, single point]",–
COc1ccc(Cc2nc3ccc(C(=O)N4CCCC4)cc3o2)cc1OC,"inconclusive: 7.3 µM [inhibitor, partial curve]",–
O=C(COC(=O)Cc1ccccc1[N+](=O)[O-])NC1CCCC1,–,inactive: 9.75%
Cc1cc2c(sc3ccccc32)c(C)n1,–,inactive: 0%
Cc1c(C(=O)N2CCCC2)c(S(=O)(=O)Nc2ccccc2)c(C)n1C,–,inactive: 6.31%
CC(/C=N\Nc1nnc2c(n1)[nH]c1c(C)cccc12)=C\c1ccco1,"inconclusive: 20.6 µM [activator, single point]",–
Cc1noc(C)c1CSCC(=O)N(CCC(C)C)c1c(N)n(Cc2ccccc2)c(=O)[nH]c1=O,–,inactive: 3.47%
Cn1c(N)c(C(=O)COC(=O)CNC(=O)c2ccccc2F)c(=O)n(C)c1=O,"inconclusive: 29.1 µM [activator, partial curve, poor fit]",–
O=C(Nc1ccccc1)Nc1ccc(Cl)c([N+](=O)[O-])c1,"inconclusive: 29.1 µM [inhibitor, single point]",–
Cc1nc2nc(-c3cccs3)cn2nc1C,"inconclusive: 9.2 µM [activator, partial curve]",–
Cc1nc(SCC(=O)N(CC(C)C)C2CCS(=O)(=O)C2)c2ccccc2n1 (stereo unspecified),"inconclusive: 23.1 µM [inhibitor, single point]",–
CC(c1ccccc1)c1nnc(NC(=O)c2ccc3c(c2)OCO3)s1 (stereo unspecified),"inconclusive: 0.517 µM [inhibitor, partial curve, poor fit]",–
COc1ccc(C(=O)Nc2nnc(SCC(=O)NCC3CCCO3)s2)cc1OC (stereo unspecified),–,inactive: 3.28%
COc1ccccc1CNC(=O)Cn1cc([N+](=O)[O-])ccc1=O,–,inactive: 19.4%
COC(=O)CN1C(=S)N(c2ccc(OC)cc2)C(=O)/C1=C/c1ccc(OC)cc1,"inconclusive: 16.4 µM [inhibitor, single point]",–
Cc1cccc(NC(=O)/C(C#N)=C/c2cn(CC(=O)NCc3ccco3)c3ccccc23)c1C,"inconclusive: 29.1 µM [activator, single point]",–
O=C(c1ccco1)N1CCN(c2ncnc3c(-c4ccc(Cl)cc4)nsc23)CC1,"inconclusive: 18.3 µM [activator, partial curve]",–
O=C(Nc1cnc2ccccc2c1)N1CCCCC1,"inconclusive: 3.98 µM [activator, partial curve]",–
NC(=O)C1CCN(c2nc(-c3ccc(Br)cc3)cs2)CC1,"inconclusive: 4.11 µM [activator, partial curve] and inconclusive: 1.3 µM [activator, full curve, poor fit]",–
O=C(COC(=O)c1cc(Cl)ccc1O)c1ccc2c(c1)OCO2,"inconclusive: 7.3 µM [activator, partial curve]",–
CCC1(C)Cc2ccccc2/C(=C/C(=O)N2CCCCC2)N1 (stereo unspecified),–,inactive: 9.9%
